Data from the supplement of paper PMC12067093, “Discovery and optimisation of a covalent ligand for TRIM25 and its application to targeted protein ubiquitination” (Chemical Science, 2025).
This is one part of the list.

Amino acid sequences for entries named in this document (tags omitted). A change or cut given only in a name is not applied to a line headed by its entry.
UniProt Q96EB1: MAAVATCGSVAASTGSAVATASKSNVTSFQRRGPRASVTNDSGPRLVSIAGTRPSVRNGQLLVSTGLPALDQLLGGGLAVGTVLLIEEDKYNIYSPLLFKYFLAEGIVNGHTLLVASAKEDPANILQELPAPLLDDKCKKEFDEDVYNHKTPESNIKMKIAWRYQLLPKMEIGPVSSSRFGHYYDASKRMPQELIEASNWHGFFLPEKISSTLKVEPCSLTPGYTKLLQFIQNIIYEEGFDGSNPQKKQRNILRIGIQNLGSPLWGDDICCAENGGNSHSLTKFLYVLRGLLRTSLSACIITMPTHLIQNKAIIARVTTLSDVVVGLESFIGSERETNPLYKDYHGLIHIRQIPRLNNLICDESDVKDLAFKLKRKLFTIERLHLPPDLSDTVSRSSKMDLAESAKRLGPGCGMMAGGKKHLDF
UniProt P23588, whole entry, looked up: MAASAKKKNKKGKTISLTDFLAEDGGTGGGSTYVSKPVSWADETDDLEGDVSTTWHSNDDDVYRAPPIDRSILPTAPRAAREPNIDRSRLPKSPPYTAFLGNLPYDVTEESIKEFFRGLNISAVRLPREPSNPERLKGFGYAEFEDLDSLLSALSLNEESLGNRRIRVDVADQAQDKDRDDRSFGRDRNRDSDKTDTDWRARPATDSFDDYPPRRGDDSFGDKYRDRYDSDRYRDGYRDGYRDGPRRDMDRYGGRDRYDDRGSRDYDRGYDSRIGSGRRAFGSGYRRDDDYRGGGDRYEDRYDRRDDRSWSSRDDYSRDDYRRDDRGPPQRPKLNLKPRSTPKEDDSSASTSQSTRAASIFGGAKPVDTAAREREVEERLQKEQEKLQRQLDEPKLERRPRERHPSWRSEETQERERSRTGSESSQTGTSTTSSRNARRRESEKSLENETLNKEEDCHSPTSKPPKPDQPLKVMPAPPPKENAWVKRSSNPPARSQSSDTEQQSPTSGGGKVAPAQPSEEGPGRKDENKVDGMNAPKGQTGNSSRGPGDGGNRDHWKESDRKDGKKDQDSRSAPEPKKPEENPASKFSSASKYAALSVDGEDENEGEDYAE
UniProt P07099: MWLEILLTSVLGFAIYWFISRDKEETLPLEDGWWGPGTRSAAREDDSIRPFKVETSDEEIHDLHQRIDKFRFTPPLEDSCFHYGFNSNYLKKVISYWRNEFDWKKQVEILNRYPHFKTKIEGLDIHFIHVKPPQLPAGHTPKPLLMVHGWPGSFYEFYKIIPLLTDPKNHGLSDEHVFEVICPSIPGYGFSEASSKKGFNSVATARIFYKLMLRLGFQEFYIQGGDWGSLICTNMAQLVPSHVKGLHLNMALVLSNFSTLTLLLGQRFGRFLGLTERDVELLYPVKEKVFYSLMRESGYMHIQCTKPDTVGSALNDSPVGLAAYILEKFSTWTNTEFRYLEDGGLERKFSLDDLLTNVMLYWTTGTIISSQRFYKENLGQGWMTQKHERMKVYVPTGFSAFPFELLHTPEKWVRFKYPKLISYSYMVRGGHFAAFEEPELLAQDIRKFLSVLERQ
UniProt O15372, whole entry: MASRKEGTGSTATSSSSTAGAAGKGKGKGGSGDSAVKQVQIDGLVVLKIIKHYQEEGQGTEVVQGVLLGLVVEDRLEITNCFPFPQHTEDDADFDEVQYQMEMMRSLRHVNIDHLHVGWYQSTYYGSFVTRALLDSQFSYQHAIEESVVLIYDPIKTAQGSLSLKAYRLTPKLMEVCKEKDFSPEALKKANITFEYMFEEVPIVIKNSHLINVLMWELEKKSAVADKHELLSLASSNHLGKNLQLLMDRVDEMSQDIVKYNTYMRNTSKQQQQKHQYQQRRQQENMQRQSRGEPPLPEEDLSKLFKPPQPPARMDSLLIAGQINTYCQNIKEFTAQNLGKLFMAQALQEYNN
UniProt Q7L2H7, whole entry, looked up: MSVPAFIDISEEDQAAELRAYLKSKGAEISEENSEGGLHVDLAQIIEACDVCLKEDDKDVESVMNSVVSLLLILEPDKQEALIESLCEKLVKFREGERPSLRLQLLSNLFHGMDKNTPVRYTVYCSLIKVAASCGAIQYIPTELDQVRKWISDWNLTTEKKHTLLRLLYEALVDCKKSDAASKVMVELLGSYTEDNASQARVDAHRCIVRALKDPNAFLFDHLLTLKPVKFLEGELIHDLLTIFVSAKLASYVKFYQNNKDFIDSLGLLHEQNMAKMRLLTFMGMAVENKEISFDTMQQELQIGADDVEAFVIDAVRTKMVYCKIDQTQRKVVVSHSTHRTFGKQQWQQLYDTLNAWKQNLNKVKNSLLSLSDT
UniProt Q15369, whole entry, looked up: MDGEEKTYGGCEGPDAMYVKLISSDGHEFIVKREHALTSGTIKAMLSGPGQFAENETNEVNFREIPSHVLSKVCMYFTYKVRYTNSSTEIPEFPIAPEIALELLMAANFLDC
UniProt P55010, whole entry, looked up: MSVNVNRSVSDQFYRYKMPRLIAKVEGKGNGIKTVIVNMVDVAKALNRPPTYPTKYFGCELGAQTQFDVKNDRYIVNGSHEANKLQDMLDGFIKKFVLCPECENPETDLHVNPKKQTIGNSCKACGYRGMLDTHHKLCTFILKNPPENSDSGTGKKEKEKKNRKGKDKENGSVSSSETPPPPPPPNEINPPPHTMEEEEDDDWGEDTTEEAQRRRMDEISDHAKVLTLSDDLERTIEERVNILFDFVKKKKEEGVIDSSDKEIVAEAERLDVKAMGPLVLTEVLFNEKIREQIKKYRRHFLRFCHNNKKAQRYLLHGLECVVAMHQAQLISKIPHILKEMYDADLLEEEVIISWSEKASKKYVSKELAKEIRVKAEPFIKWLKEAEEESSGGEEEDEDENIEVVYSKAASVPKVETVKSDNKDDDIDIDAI
UniProt Q32P44: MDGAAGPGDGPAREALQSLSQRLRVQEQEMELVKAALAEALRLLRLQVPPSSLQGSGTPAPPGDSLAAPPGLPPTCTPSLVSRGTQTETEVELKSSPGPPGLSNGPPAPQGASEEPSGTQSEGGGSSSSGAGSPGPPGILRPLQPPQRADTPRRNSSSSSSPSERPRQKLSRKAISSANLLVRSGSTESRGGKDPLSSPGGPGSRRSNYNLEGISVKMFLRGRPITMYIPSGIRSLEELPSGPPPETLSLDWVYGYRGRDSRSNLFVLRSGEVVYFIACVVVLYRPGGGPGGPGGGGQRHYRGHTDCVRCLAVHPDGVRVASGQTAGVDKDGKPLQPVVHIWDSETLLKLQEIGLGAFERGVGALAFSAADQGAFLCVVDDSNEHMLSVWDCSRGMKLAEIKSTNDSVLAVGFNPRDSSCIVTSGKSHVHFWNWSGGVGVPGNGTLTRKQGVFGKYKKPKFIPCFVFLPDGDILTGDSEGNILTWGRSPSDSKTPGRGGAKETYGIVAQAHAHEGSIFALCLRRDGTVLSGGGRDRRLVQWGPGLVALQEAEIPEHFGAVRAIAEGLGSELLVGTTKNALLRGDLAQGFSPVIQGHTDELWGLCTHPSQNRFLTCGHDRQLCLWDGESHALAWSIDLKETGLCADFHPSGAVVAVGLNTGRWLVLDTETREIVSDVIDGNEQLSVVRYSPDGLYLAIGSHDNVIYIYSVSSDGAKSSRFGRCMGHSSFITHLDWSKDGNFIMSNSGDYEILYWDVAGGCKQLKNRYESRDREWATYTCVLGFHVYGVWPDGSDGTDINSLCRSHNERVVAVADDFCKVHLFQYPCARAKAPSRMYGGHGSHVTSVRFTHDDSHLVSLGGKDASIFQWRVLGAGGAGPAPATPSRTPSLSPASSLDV
UniProt P34913, whole entry, looked up: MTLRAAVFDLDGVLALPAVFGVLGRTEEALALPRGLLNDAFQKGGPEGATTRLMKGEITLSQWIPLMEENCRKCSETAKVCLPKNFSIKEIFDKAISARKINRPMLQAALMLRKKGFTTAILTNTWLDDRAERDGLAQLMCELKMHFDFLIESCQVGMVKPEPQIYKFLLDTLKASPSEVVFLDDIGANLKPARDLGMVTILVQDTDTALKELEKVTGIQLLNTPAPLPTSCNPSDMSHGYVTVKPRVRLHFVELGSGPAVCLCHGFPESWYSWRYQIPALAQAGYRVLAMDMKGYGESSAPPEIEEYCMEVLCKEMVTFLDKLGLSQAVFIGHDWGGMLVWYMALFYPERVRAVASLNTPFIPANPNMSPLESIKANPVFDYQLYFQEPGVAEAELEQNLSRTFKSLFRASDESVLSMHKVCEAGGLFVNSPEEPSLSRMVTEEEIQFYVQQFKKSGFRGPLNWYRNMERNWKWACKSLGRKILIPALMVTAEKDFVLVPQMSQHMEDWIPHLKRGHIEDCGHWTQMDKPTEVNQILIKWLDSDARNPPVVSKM
UniProt Q6IA86: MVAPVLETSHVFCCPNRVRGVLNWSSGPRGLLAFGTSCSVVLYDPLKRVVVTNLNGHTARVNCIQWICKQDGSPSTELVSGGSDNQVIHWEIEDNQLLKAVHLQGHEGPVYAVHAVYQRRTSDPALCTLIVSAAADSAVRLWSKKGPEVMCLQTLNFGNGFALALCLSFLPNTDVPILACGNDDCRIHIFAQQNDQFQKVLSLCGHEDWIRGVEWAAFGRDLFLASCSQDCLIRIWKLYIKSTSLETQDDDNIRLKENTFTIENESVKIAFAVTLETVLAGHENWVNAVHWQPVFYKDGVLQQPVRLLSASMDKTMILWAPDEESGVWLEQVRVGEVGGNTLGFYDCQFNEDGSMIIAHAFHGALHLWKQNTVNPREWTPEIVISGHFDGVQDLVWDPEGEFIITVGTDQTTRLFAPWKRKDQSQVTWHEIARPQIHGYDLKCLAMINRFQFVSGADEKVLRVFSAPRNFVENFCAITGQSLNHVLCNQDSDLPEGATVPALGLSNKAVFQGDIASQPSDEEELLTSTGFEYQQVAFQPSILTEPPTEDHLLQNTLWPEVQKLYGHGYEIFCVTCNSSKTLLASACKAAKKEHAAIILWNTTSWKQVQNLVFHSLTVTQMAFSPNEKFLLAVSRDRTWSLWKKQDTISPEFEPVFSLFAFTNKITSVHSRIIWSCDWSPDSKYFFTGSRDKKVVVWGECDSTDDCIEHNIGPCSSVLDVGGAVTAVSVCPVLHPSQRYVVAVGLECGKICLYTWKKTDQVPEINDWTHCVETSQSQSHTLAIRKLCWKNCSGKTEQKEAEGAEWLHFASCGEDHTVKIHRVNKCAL
UniProt P60842, whole entry, looked up: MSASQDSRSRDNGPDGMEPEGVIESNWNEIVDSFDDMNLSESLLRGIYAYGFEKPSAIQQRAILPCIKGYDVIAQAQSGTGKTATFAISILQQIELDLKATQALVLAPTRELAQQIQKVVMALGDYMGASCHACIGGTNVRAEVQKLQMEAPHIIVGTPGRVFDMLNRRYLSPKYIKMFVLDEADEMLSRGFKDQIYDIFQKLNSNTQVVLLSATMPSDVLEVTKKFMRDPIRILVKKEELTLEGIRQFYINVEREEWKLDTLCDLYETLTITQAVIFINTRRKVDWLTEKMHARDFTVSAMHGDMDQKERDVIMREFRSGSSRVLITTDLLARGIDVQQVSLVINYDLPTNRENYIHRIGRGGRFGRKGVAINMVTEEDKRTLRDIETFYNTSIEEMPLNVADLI
UniProt P38919, whole entry, looked up: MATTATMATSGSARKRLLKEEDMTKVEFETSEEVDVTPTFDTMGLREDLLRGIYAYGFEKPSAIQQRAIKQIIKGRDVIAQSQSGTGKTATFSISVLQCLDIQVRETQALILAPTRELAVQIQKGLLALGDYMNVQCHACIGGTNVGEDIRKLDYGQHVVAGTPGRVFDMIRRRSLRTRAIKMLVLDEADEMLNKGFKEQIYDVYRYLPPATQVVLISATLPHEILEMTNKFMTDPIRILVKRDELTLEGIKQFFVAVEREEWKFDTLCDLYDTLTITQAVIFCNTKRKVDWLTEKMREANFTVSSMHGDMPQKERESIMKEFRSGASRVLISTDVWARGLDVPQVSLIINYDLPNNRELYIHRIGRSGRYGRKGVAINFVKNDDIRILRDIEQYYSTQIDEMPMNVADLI
UniProt Q96AY2: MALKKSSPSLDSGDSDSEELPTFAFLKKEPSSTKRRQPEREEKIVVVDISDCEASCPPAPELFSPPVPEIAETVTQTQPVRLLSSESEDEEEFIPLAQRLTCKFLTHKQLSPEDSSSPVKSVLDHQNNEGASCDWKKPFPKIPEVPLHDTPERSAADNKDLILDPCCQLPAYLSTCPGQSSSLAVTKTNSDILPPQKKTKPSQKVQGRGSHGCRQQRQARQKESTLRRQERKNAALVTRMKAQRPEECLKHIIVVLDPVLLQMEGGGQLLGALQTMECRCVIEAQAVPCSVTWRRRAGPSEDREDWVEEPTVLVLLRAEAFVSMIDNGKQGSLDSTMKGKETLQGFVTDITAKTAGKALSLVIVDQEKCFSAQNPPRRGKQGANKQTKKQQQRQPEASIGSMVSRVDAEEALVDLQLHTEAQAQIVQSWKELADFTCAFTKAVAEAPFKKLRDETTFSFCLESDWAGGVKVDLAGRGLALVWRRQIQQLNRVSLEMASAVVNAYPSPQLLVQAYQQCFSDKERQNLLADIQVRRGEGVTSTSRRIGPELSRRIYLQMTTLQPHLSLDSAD

compound: Cc1cc(ccc1-c1ccccc1)C(=O)N1CCCN(CC1)C(=O)CCl [compound 10]; test: probe-labelled cysteine peptide fold change vs DMSO (competition) (log2 fold change); higher = less target engagement (more negative = stronger competition); details: 10 µM; THP-1; incubation time: 4 h
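Note: competitive profiling in live THP-1 cells: cysteine peptides tagged with an iodoacetamide desthiobiotin (IA-DTB) probe, intensity after compound treatment relative to DMSO-treated cells.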

Target | probe-labelled cysteine peptide fold change
EIF3G_O75821_25_CVTSELLK (UniProt O75821) | -0.265
ELP4_Q96EB1_412_LGPGCGMMAGGK (UniProt Q96EB1) | -0.372
EIF4B_P23588_457_SLENETLNKEEDCHSPTSKPPKPDQPLK (UniProt P23588) | 0.0656
EMC8_O43402_161_CRDPHHDYCEDWPEAQR (UniProt O43402) | 0.564
EPHX1_P07099_182_NHGLSDEHVFEVICPSIPGYGFSEASSK (UniProt P07099) | 0.0663
EIF3H_O15372_177_LMEVCK (UniProt O15372) | -0.109
ERAL1_O75616_425_GHVISQIAQEAGHDLMDIFLCDVDIR (UniProt O75616) | 0.0685
EIF3M_Q7L2H7_175_LLYEALVDCKK (UniProt Q7L2H7) | 0.0635
ELOC_Q15369_74_VCMYFTYK (UniProt Q15369) | 0.128
ELMOD2_Q8IZ81_285_GLLLDCNVALTLK (UniProt Q8IZ81) | 0.29
EIF5_P55010_138_LCTFILK (UniProt P55010) | -0.108
ERBIN_Q96RT1_464_AQVAFECDEDK (UniProt Q96RT1) | 0.0695
EP300_Q09472_1272_MHQICVLHHEIIWPAGFVCDGCLK (UniProt Q09472) | 0.116
ELOC_Q15369_11_TYGGCEGPDAMYVK (UniProt Q15369) | -0.0831
EML3_Q32P44_615_FLTCGHDR (UniProt Q32P44) | -0.0338
EPHX2_P34913_309_GYGESSAPPEIEEYCMEVLCK (UniProt P34913) | 0.173
ELP2_Q6IA86_38_GLLAFGTSCSVVLYDPLK (UniProt Q6IA86) | -0.0438
EIF5_P55010_99+102_FVLCPECENPETDLHVNPK (UniProt P55010) | 0.0984
EPRS_P07814_1148_LNQWCNVVR (UniProt P07814) | 0.0104
EIF4B_P23588_457_EEDCHSPTSKPPKPDQPLK (UniProt P23588) | 0.0478

Part of the list above, as a markdown table:

| Target | probe-labelled cysteine peptide fold change |
| --- | --- |
| EIF3H_O15372_177_LMEVCK (UniProt O15372) | -0.109 |
| EIF3M_Q7L2H7_175_LLYEALVDCKK (UniProt Q7L2H7) | 0.0635 |
| EIF5_P55010_138_LCTFILK (UniProt P55010) | -0.108 |

Later entries.

Target | probe-labelled cysteine peptide fold change
EIF4G1_Q04637_662_LQGINCGPDFTPSFANLGR (UniProt Q04637) | -0.232
EPRS_P07814_123_TYLVGNSLSLADLCVWATLK (UniProt P07814) | 0.212
EPRS_P07814_697_EAPCVLIYIPDGHTK (UniProt P07814) | 0.0998
EPG5_Q9HCE0_1586_QYVNREEQTTLHLECR (UniProt Q9HCE0) | 0.0905
ELP2_Q6IA86_572_LYGHGYEIFCVTCNSSK (UniProt Q6IA86) | 0.0664
ELP5_Q8TE02_52+61_SALCGEQVHILGCEVSEEEFREGFDSDINNR (UniProt Q8TE02) | -0.438
EML2_O95834_604+605_VHLFSYPCCQPR (UniProt O95834) | -0.152
ELMO1_Q92556_726_EPSNYDFVYDCN (UniProt Q92556) | -0.585
ELAC1_Q9H777_130_TMELSHTELVFHYVVHELVPTADQCPAEELK (UniProt Q9H777) | -0.11
ELP5_Q8TE02_151_LPCTTLCQVLHAVSHQDSCPGDSSSVGK (UniProt Q8TE02) | 0.187
EML3_Q32P44_420_DSSCIVTSGK (UniProt Q32P44) | 0.137
EIF4A1_P60842_131_VVMALGDYMGASCHACIGGTNVR (UniProt P60842) | 0.196
EPRS_P07814_623_VTWLAETTHALPIPVICVTYEHLITKPVLGK (UniProt P07814) | 0.0774
ELP1_O95163_744_EAFECMR (UniProt O95163) | -0.575
EIF4A3_P38919_137_GLLALGDYMNVQCHACIGGTNVGEDIRK (UniProt P38919) | 0.154
EME1_Q96AY2_437_ELADFTCAFTK (UniProt Q96AY2) | 0.0835
EIF3D_O15371_327_NLAMEATYINHNFSQQCLR (UniProt O15371) | -0.222
ELP2_Q6IA86_13_VAPVLETSHVFCCPNR (UniProt Q6IA86) | -0.124
ENOPH1_Q9UHY7_202_IADSIGCSTNNILFLTDVTR (UniProt Q9UHY7) | 0.0416
